Test results published in article PMC4337721.
Results are given in words; binding and its absence hold for the method and conditions named. For some assays here: Binding can be weak; no strength is given.

By UniProt entry, the sequences of proteins in these tests, tags left out. Where a name states a change or a piece, a line headed by the entry shows the natural chain unless it says otherwise. Chains listed by the source or under a name are the forms on record and can include a tag or linker. Residues count along the entry.
UniProt P11021: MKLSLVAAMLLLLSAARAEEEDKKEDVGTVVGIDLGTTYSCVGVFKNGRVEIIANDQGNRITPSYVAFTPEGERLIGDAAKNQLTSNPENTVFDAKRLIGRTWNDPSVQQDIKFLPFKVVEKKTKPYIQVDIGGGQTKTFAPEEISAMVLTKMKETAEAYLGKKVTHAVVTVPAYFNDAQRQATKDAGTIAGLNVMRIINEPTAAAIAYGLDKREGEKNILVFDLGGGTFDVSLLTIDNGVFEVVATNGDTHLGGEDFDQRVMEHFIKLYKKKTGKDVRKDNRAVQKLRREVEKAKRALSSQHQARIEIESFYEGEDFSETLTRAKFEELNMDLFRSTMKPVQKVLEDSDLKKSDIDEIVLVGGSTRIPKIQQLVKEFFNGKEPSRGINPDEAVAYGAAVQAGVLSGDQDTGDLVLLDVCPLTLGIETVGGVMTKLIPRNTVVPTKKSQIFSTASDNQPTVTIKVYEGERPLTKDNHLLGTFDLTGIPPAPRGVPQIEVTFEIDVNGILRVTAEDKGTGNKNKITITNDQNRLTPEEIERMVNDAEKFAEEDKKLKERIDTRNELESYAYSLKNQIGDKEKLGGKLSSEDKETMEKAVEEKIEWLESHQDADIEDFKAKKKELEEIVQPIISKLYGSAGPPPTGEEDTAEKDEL
His6-tagged full-length BiP (residues 28–654): residues 28-654 of P11021
BiP ATPase domain (residues 28–405), His6-tag removed: residues 28-405 of P11021
His6-tagged BiP substrate binding domain (residues 422–654): residues 422-654 of P11021
UniProt Q9NZJ5, residues 54-509: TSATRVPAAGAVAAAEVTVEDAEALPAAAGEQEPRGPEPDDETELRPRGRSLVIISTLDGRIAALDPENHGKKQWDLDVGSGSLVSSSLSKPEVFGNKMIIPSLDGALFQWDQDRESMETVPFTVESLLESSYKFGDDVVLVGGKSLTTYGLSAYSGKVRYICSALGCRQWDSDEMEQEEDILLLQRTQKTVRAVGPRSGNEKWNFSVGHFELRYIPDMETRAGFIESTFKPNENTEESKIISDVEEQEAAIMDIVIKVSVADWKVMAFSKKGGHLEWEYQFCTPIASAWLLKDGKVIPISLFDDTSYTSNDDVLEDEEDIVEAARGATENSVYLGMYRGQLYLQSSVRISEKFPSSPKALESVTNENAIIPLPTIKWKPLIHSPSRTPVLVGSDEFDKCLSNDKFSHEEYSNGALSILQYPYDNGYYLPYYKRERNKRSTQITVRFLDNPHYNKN

What was measured:
[1] = biological target: His6-tagged BiP substrate binding domain (residues 422–654) (human) (UniProt P11021); assay: pull-down; His6-tagged BiP protein (25 μM) held on TALON resin, untagged Ire1 LD, Perk LD or CH1 at 500 μM added, 1 hr RT, buffer B; SDS-PAGE, coomassie; both purified
[2] = biological target: His6-tagged full-length BiP (residues 28–654) (human) (UniProt P11021); assay: as above
[3] = biological target: Perk luminal domain, complete (region I–V, residues 54–509) (human) (UniProt Q9NZJ5); assay: as above
[4] = biological target: BiP ATPase domain (residues 28–405), His6-tag removed (human) (UniProt P11021); assay: MST; Monolith NT.115; buffer B (50 mM HEPES pH 7.5, 75 mM NaCl, 10% glycerol, 1 mM TCEP), no nucleotide; one partner labelled (Red-NHS) at 50 nM, sixteen twofold dilutions of the unlabelled partner (which was labelled is not told); 25°C; three independent experiments averaged; both purified
[5] = biological target: Perk luminal domain, complete (region I–V, residues 54–509) (human) (UniProt Q9NZJ5); assay: as above

binding [1]: binds | binding [2]: binds | binding [3]: no binding | binding [4]: no binding | binding [5]: no binding
Substance: unfolded protein CH1 (immunoglobulin constant heavy chain domain) (from UniProt P01868) (domain or fragment)
